Assay results: PubChem BioAssay AID2685 (National Center for Advancing Translational Sciences (NCATS), 2010)
Out of some 320,000 compounds screened, about 2,100 (0.66%) were called active. The inconclusive results got no clear call from the source; some entries with a clear call stand among them for comparison. The call rests on the fitted dose curve; in most records, active means well fitted inhibition curve with a large enough effect in the signal ratio, with a control signal flat (not every such curve was filed as active); inconclusive means small, poorly fitted or top-dose-only effect, or effect the other way, or a change in a side signal; inactive means flat fitted curve, though single readings scatter; the % refers to the signal ratio. A potency beside an inconclusive call is a rough fit, not a confirmed value. Where a SMILES comes first, the peptide text is derived from it. [ ]: non-standard residue; d: D form. The star is where a group is joined. ξ: configuration not given here. Cbz = O=C(OCc1ccccc1)*; ξV = CC(C)C(N)C(=O)O

test: qHTS Assay for Lipid Storage Modulators in Drosophila S3 Cells; conditions: BODIPY lipid droplet fluorescence, 18-24 h, cells fed with added oleic acid; lipid storage change, negative = inhibition: at 46.1 µM (top of the series) unless noted
Method in brief: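 Drosophila S3 cells got compounds at several concentrations plus oleic acid (400 uM solution). Laser-scanning cytometry with 488 nm excitation read lipid droplets at 500-530 nm and cells at 575-640 nm. Percent activity was relative to 20 uM Triacsin C.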
On the % scale 0 is the no-effect control and ±100 the full control effect; potency means the concentration at half of the fitted maximal effect.

Row | Structure (SMILES) | lipid storage change, negative = inhibition | Potency
1 | CCCOc1ccc(C2C(C(=O)OC)=C(C)N=C3SCCC(=O)N32)cc1OCC (stereo unspecified) | inconclusive: 0.466% | 
2 | COCCCNC(=O)/C(C#N)=C/c1c(N2CCCCCC2)nc2ccccn2c1=O | inconclusive: -22.2% | 
3 | O=C1CCCc2nc(N3CCN(c4ccccc4)CC3)ncc21 | inconclusive: 5.65% | 
4 | Cn1c(=O)c2c(nc(NCCc3ccccc3)n2Cc2ccc(F)cc2)n(C)c1=O | inconclusive: -80.7% | 
5 | CCC(c1nnnn1Cc1ccco1)N(CCN1CCOCC1)Cc1cc2cc(C)ccc2[nH]c1=O (stereo unspecified) |  | inconclusive: 16.4 µM [activator, single point]
6 | CCN1CCN(c2oc(COc3ccc(-c4ccccc4)cc3)nc2C#N)CC1 | inconclusive: 9.85% | 
7 | COCCN(C(=O)CC1CCCCC1)c1c(N)n(CC(C)C)c(=O)[nH]c1=O | inconclusive: -10.5% | 
8 | COc1ccc(S(=O)(=O)Nc2cc3c4c(oc3c3ccccc23)CCCC4=O)cc1 |  | inconclusive: 14.6 µM [activator, partial curve]
9 | CC(=O)C(C(C)=O)c1cc(NS(=O)(=O)c2ccccc2)ccc1NS(=O)(=O)c1ccccc1 | inconclusive: 13.4% | 
10 | O=C(COC(=O)Cn1cnc2ccccc21)Nc1cc2c(cc1Cl)C(=O)c1ccccc1C2=O |  | inconclusive: 29.1 µM [falling, single point]
11 | Cc1c(NC(=O)c2c(F)cccc2F)c(=O)n(-c2ccccc2)n1C |  | inconclusive: 29.1 µM [falling, single point]
12 | COc1ccc(OC)c(C2C(C(=O)c3sc(C)nc3C)=C(O)C(=O)N2CCN2CCOCC2)c1 (stereo unspecified) |  | inconclusive: 0.13 µM [activator, full curve, poor fit]
13 | O=C(C1CCCN(c2nnc(-n3cccc3)s2)C1)N1CCN(c2ccccc2)CC1 (stereo unspecified) | inconclusive: 36.7% | 
14 | CC(C)(C)S(=O)(=O)c1ccc(S(=O)(=O)C(C)(C)C)s1 | inconclusive: 2.87% | 
15 | CCCSc1nc(C)cc(C)c1C(N)=O | inconclusive: -0.749% | 
16 | CC1(C)CC2(CCCN(C(=S)Nc3ccccc3)C2)CCO1 (stereo unspecified) | inconclusive: 7.37% | 
17 | CCN(CC(=O)Nc1ccccc1C(F)(F)F)C(=O)CSCc1c(C)noc1C | inconclusive: 6.65% | 
18 | CCOc1cc(/C=C2/SC(=S)N(C)C2=O)ccc1Oc1ccc([N+](=O)[O-])cc1[N+](=O)[O-] | inconclusive: -49.2% | 
19 | COc1cccc(Cn2nnc(C(=O)NCCc3ccc(Cl)cc3)c2N)c1 | inconclusive: -9.12% | 
20 | CC(CNC(=O)COc1ccccc1)OC(=O)Nc1cccc(Cl)c1 (stereo unspecified) | inconclusive: 8.34% | 
21 | COc1cc(C(=O)OCC(=O)Nc2ccc(F)cc2F)cc(OC)c1OC |  | inconclusive: 6.51 µM [rising, single point]
22 | COC(=O)CNC(=O)C(NC(=O)OCc1ccccc1)C(C)C (stereo unspecified) (Cbz-[ξV]-Gly-OMe) | inconclusive: 23.3% | 
23 | CCOC(=O)Cn1cc(/C=C/[N+](=O)[O-])c2ccccc21 |  | inconclusive: 13 µM [cytotoxic, partial curve, poor fit]

9 of the compounds above, as tab-separated lines.
Row	Structure (SMILES)	lipid storage change, negative = inhibition	Potency
5	CCC(c1nnnn1Cc1ccco1)N(CCN1CCOCC1)Cc1cc2cc(C)ccc2[nH]c1=O (stereo unspecified)		inconclusive: 16.4 µM [activator, single point]
6	CCN1CCN(c2oc(COc3ccc(-c4ccccc4)cc3)nc2C#N)CC1	inconclusive: 9.85%	
7	COCCN(C(=O)CC1CCCCC1)c1c(N)n(CC(C)C)c(=O)[nH]c1=O	inconclusive: -10.5%	
8	COc1ccc(S(=O)(=O)Nc2cc3c4c(oc3c3ccccc23)CCCC4=O)cc1		inconclusive: 14.6 µM [activator, partial curve]
9	CC(=O)C(C(C)=O)c1cc(NS(=O)(=O)c2ccccc2)ccc1NS(=O)(=O)c1ccccc1	inconclusive: 13.4%	
10	O=C(COC(=O)Cn1cnc2ccccc21)Nc1cc2c(cc1Cl)C(=O)c1ccccc1C2=O		inconclusive: 29.1 µM [falling, single point]
11	Cc1c(NC(=O)c2c(F)cccc2F)c(=O)n(-c2ccccc2)n1C		inconclusive: 29.1 µM [falling, single point]
12	COc1ccc(OC)c(C2C(C(=O)c3sc(C)nc3C)=C(O)C(=O)N2CCN2CCOCC2)c1 (stereo unspecified)		inconclusive: 0.13 µM [activator, full curve, poor fit]
13	O=C(C1CCCN(c2nnc(-n3cccc3)s2)C1)N1CCN(c2ccccc2)CC1 (stereo unspecified)	inconclusive: 36.7%	

Following part

Row | Structure (SMILES) | lipid storage change, negative = inhibition | Potency
24 | Cc1ccc(C(=O)N/C(=C\c2ccco2)C(=O)NCCN2CCOCC2)cc1C | inconclusive: 17.6% | 
25 | O=C(/C=C/c1cccs1)NC(=S)NNC(=O)c1ccccc1O | inconclusive: -7.5% | 
26 | Nc1nc2ccccc2cc1S(=O)(=O)c1ccccc1 | inconclusive: 12.5% | 
27 | O=C(COc1ccc(Cl)cc1)N(Cc1ccccc1)c1nc(-c2ccccc2)cs1 | inconclusive: 10.5% | 
28 | Cc1ccccc1OCC(O)CN1CCN(CCN2C(=O)c3cccc4cccc(c34)C2=O)CC1 (stereo unspecified) | inconclusive: 11.5% | 
29 | Cc1cc(C)c(NC(=O)CN(C)C(=O)C2CC(=O)N(c3cccc4ccccc34)C2)c(C)c1 (stereo unspecified) |  | inconclusive: 0.651 µM [activator, partial curve]
30 | Cc1cc(C)c(C)c(S(=O)(=O)NCC(=O)NCC2CCCCC2)c1C |  | inconclusive: 0.146 µM [falling, full curve, poor fit]
31 | CCCc1[nH]c(=O)c(C#N)c2c1COC(C)(C)C2 |  | inconclusive: 0.517 µM [falling, full curve, poor fit]
32 | CCN1C(=O)[C@@H]2[C@@H](c3ccc(-c4ccc(OC)cc4)c(OC)c3)N3CCCC[C@@]3(C(=O)OC)[C@@H]2C1=O |  | active: 9.2 µM
33 | COc1cccc(C2c3[nH]c4ccccc4c3CCN2Cc2cccn2-c2ncccn2)c1 (stereo unspecified) | inconclusive: 27.7% | 
34 | COc1ccc(-c2nnc(NC(=O)c3ccc(S(=O)(=O)N4CCCc5ccccc54)cc3)o2)cc1 | inconclusive: -19.8% | 
35 | CC(=O)c1ccc(S(=O)(=O)N(CC(=O)NC2CC2)Cc2ccc(F)cc2)cc1 |  | inconclusive: 2.91 µM [falling, single point]
36 | CC(C)CN(C(=O)CSc1nncs1)c1c(N)n(CC(C)C)c(=O)[nH]c1=O | inconclusive: -0.915% | 
37 | O=C(NCCN1CCOCC1)c1ccc2c(c1)N(Cc1cccc(F)c1)C(=O)c1ccccc1S2 | inconclusive: 6.15% | 
38 | COc1ccc(N2CCN(C(=O)c3cc(S(=O)(=O)N4CCCCCC4)ccc3OC)CC2)cc1 | inconclusive | 
39 | CC(=O)c1cccc(NC(=O)C2CCCN(S(=O)(=O)c3cccc4cccnc34)C2)c1 (stereo unspecified) | inconclusive: -5.79% | 
40 | CS(=O)(=O)Nc1ccc(C2=NN(S(C)(=O)=O)C(c3ccc4c(c3)OCO4)C2)cc1 (stereo unspecified) | inconclusive: 27.1% | 
41 | Cc1noc(C)c1COC(=O)c1cccnc1SCC(=O)Nc1ccc2c(c1)OCO2 | inconclusive: 11.9% | 
42 | CSc1ncccc1C(=O)OCc1ccc(Br)cc1 | inconclusive: -5.39% | 
43 | COc1ccc(N/C(N)=N/c2nc(C)cc(=O)[nH]2)cc1 |  | inconclusive: 18.4 µM [activator, partial curve]
44 | CN(C)Cc1cc(CCNC(=O)c2ccc(Cl)cc2)ccc1O | inconclusive: 11.2% | 
45 | Cc1[nH]c2ccc(-c3nnc(SCC(=O)c4ccccc4F)o3)cc2c1C | inconclusive: -18.9% | 
46 | CCc1nnc(NC(=O)CSc2nc3cccnc3n2C2CCCCC2)s1 |  | inconclusive: 3.26 µM [activator, partial curve, poor fit]
